From doi:10.1101/2024.12.16.628806 come the findings set out here.

Protein sequences, listed by entry. Tags and fused reporters are not part of them.
UniProt P49841: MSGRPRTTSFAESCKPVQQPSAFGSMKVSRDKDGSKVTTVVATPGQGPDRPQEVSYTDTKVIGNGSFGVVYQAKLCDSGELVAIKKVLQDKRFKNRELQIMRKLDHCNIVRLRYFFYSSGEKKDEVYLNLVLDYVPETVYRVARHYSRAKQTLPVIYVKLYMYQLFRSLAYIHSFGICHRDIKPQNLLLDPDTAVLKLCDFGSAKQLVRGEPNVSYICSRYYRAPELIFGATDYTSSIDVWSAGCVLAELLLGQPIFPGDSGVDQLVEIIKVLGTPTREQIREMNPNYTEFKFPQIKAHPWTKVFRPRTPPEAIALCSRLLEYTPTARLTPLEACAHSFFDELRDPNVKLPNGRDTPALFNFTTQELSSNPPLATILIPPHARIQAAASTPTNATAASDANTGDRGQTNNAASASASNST

What all share (test): co-IP
Assay [1] concerns the target T1, eGFP-IQCG (eGFP-tagged human IQ Motif Containing G) (human) (UniProt Q9H095).
T1 sequence: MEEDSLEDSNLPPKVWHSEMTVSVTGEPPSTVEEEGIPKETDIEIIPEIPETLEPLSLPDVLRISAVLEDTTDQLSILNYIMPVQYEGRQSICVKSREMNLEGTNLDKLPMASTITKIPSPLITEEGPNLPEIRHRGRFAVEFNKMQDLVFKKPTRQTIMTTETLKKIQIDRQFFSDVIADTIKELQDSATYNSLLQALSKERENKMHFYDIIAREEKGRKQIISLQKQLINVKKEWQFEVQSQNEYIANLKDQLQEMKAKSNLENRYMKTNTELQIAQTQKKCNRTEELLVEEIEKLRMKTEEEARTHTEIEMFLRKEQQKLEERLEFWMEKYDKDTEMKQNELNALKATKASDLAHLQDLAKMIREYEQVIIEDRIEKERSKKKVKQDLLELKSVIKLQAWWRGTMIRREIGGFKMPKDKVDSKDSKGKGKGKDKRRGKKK

Assay [2] has as its target T2, eGFP-IQCG N2 region fragment (human) (UniProt Q9H095).
T2 sequence: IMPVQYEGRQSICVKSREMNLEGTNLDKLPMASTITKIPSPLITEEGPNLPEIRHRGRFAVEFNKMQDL

The target of another assay is eGFP-GSK3β (UniProt P49841).

No constants are given. Whether binding was seen depends on the method and setting. In cells and extracts the contact can be indirect. Some binding calls cover weakened binding; strength is not graded here. For part of these data: Tags and fused reporters may be left off the sequences shown.

Take “glycogen synthase kinase-3β (GSK3β) (from UniProt P49841 1-420)”: the binding result in assay [1] and in assay [2] was “binds” throughout.

B1: IQCG (detected with anti-IQCG antibody) (protein, UniProt Q9H095 1-443)
chain: MEEDSLEDSNLPPKVWHSEMTVSVTGEPPSTVEEEGIPKETDIEIIPEIPETLEPLSLPDVLRISAVLEDTTDQLSILNYIMPVQYEGRQSICVKSREMNLEGTNLDKLPMASTITKIPSPLITEEGPNLPEIRHRGRFAVEFNKMQDLVFKKPTRQTIMTTETLKKIQIDRQFFSDVIADTIKELQDSATYNSLLQALSKERENKMHFYDIIAREEKGRKQIISLQKQLINVKKEWQFEVQSQNEYIANLKDQLQEMKAKSNLENRYMKTNTELQIAQTQKKCNRTEELLVEEIEKLRMKTEEEARTHTEIEMFLRKEQQKLEERLEFWMEKYDKDTEMKQNELNALKATKASDLAHLQDLAKMIREYEQVIIEDRIEKERSKKKVKQDLLELKSVIKLQAWWRGTMIRREIGGFKMPKDKVDSKDSKGKGKGKDKRRGKKK
For B1, the binding entry with eGFP-GSK3β was “binds”.
